Results: patent publication US20050196396A1 (GREENVILLE HOSPITAL SYSTEM, published 2005)
No constants are given. Whether binding was seen depends on the method and setting. Some binding calls cover weakened binding; strength is not graded here.

Chains of the proteins cited; added tags and fusions are not shown. Residues count along the entry.
UniProt P35968, residues 329-424: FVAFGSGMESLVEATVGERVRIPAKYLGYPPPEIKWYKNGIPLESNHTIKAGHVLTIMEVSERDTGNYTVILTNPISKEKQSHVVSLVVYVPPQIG

Biological target: KDR (Ig4) (UniProt P35968)
Assay: FPLC purification fractions (self-association)

Substance: KDR (Ig4) (from UniProt P35968 329-424) (receptor)
- binding: binds
